The other results are listed elsewhere or left out. The calls rarely recur for the same compound in another form.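 Kinases, fused to nanoluciferase, were expressed in K562 cells; luminescence was measured every 4 h from 2 to 18 h as percent of control (DMSO = 100%, positive control = 0%). A time point is decreased if signal falls significantly (2 sigma). Hits were called by the authors by a rule that is not shown; the count of time points alone does not decide it.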
target: DYRK2 (UniProt Q92630); assay: kinase-Nluc reporter destabilization hit call (1 = scored as downregulated) (binary); higher = compound decreases kinase abundance; conditions: K562; 2-18 h

The chains behind the UniProt entries cited, without tags or fusion partners. Where a name states a change or a piece, a line headed by the entry shows the natural chain unless it says otherwise.
UniProt Q92630: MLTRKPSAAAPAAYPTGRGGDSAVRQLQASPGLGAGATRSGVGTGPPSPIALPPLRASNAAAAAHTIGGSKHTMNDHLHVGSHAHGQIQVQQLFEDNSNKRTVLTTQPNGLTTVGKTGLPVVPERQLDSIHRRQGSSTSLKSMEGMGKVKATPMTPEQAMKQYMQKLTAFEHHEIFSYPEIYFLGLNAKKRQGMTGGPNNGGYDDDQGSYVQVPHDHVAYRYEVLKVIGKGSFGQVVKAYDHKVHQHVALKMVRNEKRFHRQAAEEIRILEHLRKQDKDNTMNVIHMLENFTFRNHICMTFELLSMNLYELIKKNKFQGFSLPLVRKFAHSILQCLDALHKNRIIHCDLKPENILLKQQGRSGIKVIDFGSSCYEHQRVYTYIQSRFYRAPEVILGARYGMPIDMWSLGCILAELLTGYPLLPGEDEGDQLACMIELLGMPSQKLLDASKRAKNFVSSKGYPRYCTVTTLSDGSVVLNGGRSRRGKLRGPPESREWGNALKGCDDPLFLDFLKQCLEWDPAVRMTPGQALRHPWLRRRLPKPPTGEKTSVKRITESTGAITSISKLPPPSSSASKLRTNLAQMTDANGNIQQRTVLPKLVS

Row | SMILES | kinase-Nluc reporter destabilization hit call
1 | COc1ccc2c(c1)/C(=C/c1cnc[nH]1)C(=O)N2 (2.5 µM) | inactive: 0
2 | CC(=O)O[C@H]1[C@H]2[C@@H](OC(=O)Cc3ccccc3)[C@@H](C)C[C@]2(OC(C)=O)C(=O)/C(C)=C/[C@@H]2[C@H](CC[C@@]13CO3)C2(C)C [Euphorbiasteroid] (10 µM) | inactive: 0
3 | O=c1[nH]c2ccccc2n1C1CCN(CCCC(c2ccc(F)cc2)c2ccc(F)cc2)CC1 [Pimozide] (2.5 µM) | inactive: 0
4 | CC(=O)Oc1ccc(/C=C/c2cc(OC(C)=O)cc(OC(C)=O)c2)cc1 [Triacetylresveratrol] (10 µM) | inactive: 0
5 | C/C=C(/C)C(=O)O[C@H]1[C@@H]2[C@H](C)C(=O)O[C@@H]2C[C@@H](C)[C@@H]2C=CC(=O)[C@]21C [Brevilin A] (2.5 µM) | inactive: 0
6 | O=[N+]([O-])/C=C/c1ccc2c(c1)OCO2 (2.5 µM) | inactive: 0
7 | O=C(O)c1nn(Cc2ccc(Cl)cc2Cl)c2ccccc12 [Lonidamine] (10 µM) | inactive: 0
8 | CC(=O)c1c(O)c(C)c(O)c(Cc2c(O)c3c(c(C(=O)/C=C/c4ccccc4)c2O)OC(C)(C)C=C3)c1O [Rottlerin] (2 µM) | inactive: 0
9 | Cn1cc(C2=C(c3cn(C4CCN(Cc5ccccn5)CC4)c4ccccc34)C(=O)NC2=O)c2ccccc21 [Enzastaurin] (10 µM) | inactive: 0
10 | Cc1ccccc1-n1c(Cn2ncc3c(N)ncnc32)nc2cccc(C)c2c1=O (10 µM) | inactive: 0
11 | O=c1[nH]c2ccccc2n1C1CCN(Cc2ccc(-c3[nH]c4cc5ncnc5cc4nc3-c3ccccc3)cc2)CC1 [AKT inhibitor VIII] (2.5 µM) | inactive: 0
